In publication PMC4389316, “C-terminal residues of skeletal muscle calsequestrin are essential for calcium binding and for skeletal ryanodine receptor inhibition” (Skeletal Muscle, 2015):
Results are given in words; binding and its absence hold for the method and conditions named. Some results given as binding are weak or reduced against the parent protein; the word gives no strength.

Chains of the proteins cited; added tags and fusions are not shown. Lines headed by an entry give the natural chain unless they say otherwise; changes in a name come on top. Residues count along the entry.
UniProt P07221: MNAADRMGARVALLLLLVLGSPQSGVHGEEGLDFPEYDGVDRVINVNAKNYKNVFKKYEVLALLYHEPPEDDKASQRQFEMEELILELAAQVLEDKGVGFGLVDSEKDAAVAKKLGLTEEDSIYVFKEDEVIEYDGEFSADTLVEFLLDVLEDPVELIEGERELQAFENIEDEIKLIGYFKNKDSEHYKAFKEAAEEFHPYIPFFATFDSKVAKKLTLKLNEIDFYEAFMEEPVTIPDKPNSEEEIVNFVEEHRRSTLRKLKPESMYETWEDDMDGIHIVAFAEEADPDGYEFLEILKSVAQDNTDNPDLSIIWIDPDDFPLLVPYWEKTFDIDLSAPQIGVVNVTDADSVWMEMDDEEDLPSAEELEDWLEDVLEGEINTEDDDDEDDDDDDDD
CSQ1∆C7 (rabbit CSQ1 lacking the final seven C-terminal residues 361-367): residues 29-388 of P07221
CSQ1_(∆C14) (rabbit CSQ1 lacking the whole C-terminal tail, residues 354-367): residues 29-381 of P07221

Columns and labels:
[1] = molecular target: CSQ1∆C7 (rabbit CSQ1 lacking the final seven C-terminal residues 361-367) (rabbit) (UniProt P07221); experiment: co-IP; as a1 but at 100 μM Ca2+; CSQ1 construct coupled to anti-CSQ1/protein A/G, exposed to purified trisk95; Western blot; both purified
[2] = molecular target: CSQ1_(∆C14) (rabbit CSQ1 lacking the whole C-terminal tail, residues 354-367) (rabbit) (UniProt P07221); experiment: as above
[3] = molecular target: CSQ1∆C7 (rabbit CSQ1 lacking the final seven C-terminal residues 361-367) (rabbit) (UniProt P07221); experiment: co-IP; purified CSQ1 construct coupled to anti-CSQ1/protein A/G agarose (Pierce kit), then exposed to purified trisk95 or junctin; 20 mM MOPS, 150 mM NaCl, 1 mM CaCl2, pH 7.4; CSQ1 to partner 2:1 by weight; Western blot; both purified
[4] = molecular target: CSQ1_(∆C14) (rabbit CSQ1 lacking the whole C-terminal tail, residues 354-367) (rabbit) (UniProt P07221); experiment: as above

binding [1]: binds weakly
binding [2]: no binding
binding [3]: binds weakly
binding [4]: no binding
B1: skeletal triadin 95 kDa (trisk95) (protein, UniProt Q28820 1-706)
chain: MTEITAEGNASTTTTVIDSKNGSVPKSPGKVLKRTVTEDLVTTFSSPAAWLLVIALIITWSAVAVVMFDLVDYKNFSASSIAKMGSDPLKLVHDAVEETTDWIYGFFSLLSDIISSDGDEEDDEGDEDTAKGEIEEPPLKRKDIHKEKIEKQEKPERKIPTKVVHKEKEKEKEKVKEKEKPEKKATHKEKLEKKEKPETKTVTKEEKKARTKEKIEEKTKKEVKGVKQEKVKQTVAKAKEVQKTPKPKEKESKETAAVSKQEQKDQYAFCRYMIDIFVHGDLKPGQSPAIPPPSPTEQASRPTPALPTPEEKEGEKKKAEKKVTTETKKKAEKEDAKKKSEKETDIDMKKKEPGKSPDTKPGTVKVTTQAATKKDEKKEDSKKAKKPAEEQPKGKKQEKKEKHEEPAKSTKKEHAAPSEKQAKAKIERKEEVSAASTKKAVPAKKEEKTTKTVEQETRKEKPGKISSVLKDKELTKEKEVKVPASLKEKGSETKKDEKTSKPEPQIKKEEKPGKEVKPKPPQPQIKKEEKPEQDIMKPEKTALHGKPEEKVLKQVKAVTTEKHVKPKPAKKAEHQEKEPPSIKTDKPKSTSKGMPEVTESGKKKIEKSEKEIKVPARRESHQLQNVTKAEKPARGSKEGFEDVPASKKAKEEAEEVSSTKKQKSPISFFQCVYLDGYNGYGFQFPVTPAQYPGESSGKPNSPGPKQ
